In publication PMC4352251, “The VieB auxiliary protein negatively regulates the VieSA signal transduction system in Vibrio cholerae” (BMC Microbiology, 2015):
No constants are given. Whether binding was seen depends on the method and setting. Tags and fused reporters may be left off the sequences shown.

T1: VieB (wild type, His6 tag removed) (UniProt O68319)
T1 sequence: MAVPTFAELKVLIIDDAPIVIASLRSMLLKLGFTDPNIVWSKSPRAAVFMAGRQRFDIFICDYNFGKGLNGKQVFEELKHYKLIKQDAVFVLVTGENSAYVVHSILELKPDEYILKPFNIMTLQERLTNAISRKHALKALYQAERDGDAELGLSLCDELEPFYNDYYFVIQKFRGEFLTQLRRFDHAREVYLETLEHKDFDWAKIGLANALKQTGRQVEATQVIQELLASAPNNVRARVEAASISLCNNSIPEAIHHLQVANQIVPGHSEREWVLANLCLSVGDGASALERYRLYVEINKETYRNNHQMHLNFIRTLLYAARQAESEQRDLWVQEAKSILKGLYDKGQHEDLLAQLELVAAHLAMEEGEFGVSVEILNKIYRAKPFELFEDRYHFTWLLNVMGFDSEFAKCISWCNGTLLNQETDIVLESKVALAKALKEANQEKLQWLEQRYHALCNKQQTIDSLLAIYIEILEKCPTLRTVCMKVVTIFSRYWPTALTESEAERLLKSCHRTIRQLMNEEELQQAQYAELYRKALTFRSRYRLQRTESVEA

B1: VieA-His6 (response regulator VieA) (natural protein)
chain: MKIMIVEDDRIQATSLKLKLRQLGLDDVILAENGFAALELCNKVGIDLMFCDIRMPQMDGISLLSQLSLQAPKLGVVILSAVEDTILELTHNMCSLAGFAYVDRLPKPYEVEDLQRVVEGFQKQTEPETSHKPAITLTCDEIEQAFLHDHIFNYYQPQFDFRSGAMVGVEALVRYEHPTHGMLSPAVFLPLIEQCGLHEKLFLTVLEKSVSALASIGADLQLSVNISQRNLQHSICDPILAICERYGFPASKLTLEMTEHEVYNGTPTSLANLARLRMYGVGLSIDDFGTGYASLGQLAQLPFTELKIDRSFVHDLATNYKHQQLTNMCLLLAQSLGLHCVVEGVENEETWQYLRQLGVDTCQGYYAAKPMPIAQLSELYTKNRRQCLGCQSMDDGWQILLVDNHMLSATALQKVLNKEENVSKVFVAQDIEQTLHKLRDLPINLLVVESRFLSTISPAAFHELLEPYYRGALLVLHDGLTAEAQEDEPKAIVVKANTLMETSSRILLQAQQSNVRPQAQQEELAQLSERELTVAKMLVEGLTNKEIALQLDINQKTVSTYKTRIMTKLGIKSAMELVRFVTLK
notes: not shown: His6, C-terminal, kept
B2: VieB (wild type, His6 tag removed) (protein, UniProt O68319 1-553)
chain: T1 sequence

Legend:
[1] = target: T1, VieB (wild type, His6 tag removed); assay: composition-gradient MALS (CG-MALS); both purified
[2] = target: T1, VieB (wild type, His6 tag removed); assay: SEC-MALS; Superose12 10/300 GL in Gel Filtration Buffer (25 mM Tris pH 7.5, 100 mM KCl, 1 mM DTT, 5% glycerol); column at 4°C, light scattering at 25°C; self-association of each protein; both purified

Row | Binder | binding [1] | binding [2]
1 | B1 | no binding | –
2 | B2 | – | no binding
